Laboratory results reported in patent US20250305023A1, “MEASUREMENT OF PERMEATION OF SMALL MOLECULES INTO GRAM NEGATIVE BACTERIA” (University of Virginia Patent Foundation, priority 2022, published 2025).

Test system: E. coli expressing HaloTag
Test: Bacterial ChloroAlkane Penetration Assay (BaCAPA) pulse-chase, flow cytometry
Type: cell-based
Settings: Escherichia coli, pulse with chloroalkane-tagged molecule, chase with 5 μM R110cl, IPTG induced, read-out: EC50 (apparent accumulation/permeation, BaCAPA)
Description: The process is useful as an assay method that is adapted from the chloroalkane penetration assay (CAPA; Kascakova S, Maigre L, Chevalier J, Refregiers M, Pages J M. Antibiotic transport in resistant bacteria: synchrotron UV fluorescence microscopy to determine antibiotic accumulation with single cell resolution. PLOS One. 2012; 7(6)), which is measures the accumulation of molecules into mammalian cells. This method relies on the genetically encoded HaloTag^24, a mutant form of a bacterial haloalkane dehalogenase that facilitates covalent bond formation with chloroalkane-linked ligands (FIG. 1). Previous efforts utilizing the HaloTag protein within bacteria focused on the visualization of protein fusions^25-26 and the role of a cationic peptide on membrane permeabilization.^27 Bacterial Chloroalkane Penetration Assay (BaCAPA) measures the apparent accumulation of molecules into bacterial cells. The assay is based on the expression of the HaloTag protein inside bacterial cells, which are exposed to molecules of interest linked to a chloroalkane tag. If the molecules reach the HaloTag proteins inside the bacteria, they will be covalently bound to the protein. […] Therefore, a decrease in cellular fluorescence signal should be reflective. […]
HaloTag Protein Expression: Cytoplasmic HaloTag protein. […] The pellet was washed three times with 1×PBS pH 7.2 following which cells were ready for assaying. […]

Compound | EC50 [µM]
O=C(CN1CCN(c2cc3c(cc2F)c(=O)c(C(=O)O)cn3C2CC2)CC1)NCCOCCOCCCCCCCl [Compound 7] | 6.5
O=C(NCCOCCOCCCCCCCl)c1cn(C2CC2)c2cc(N3CCNCC3)c(F)cc2c1=O [Compound 8, Ciprofloxacin-carboxy-HaloTag amide] | 0.5
